Data from publication PMC3563580.
Results are given in words; binding and its absence hold for the method and conditions named. Binding seen in cells or lysates may run through a third protein. Some results given as binding are weak or reduced against the parent protein; the word gives no strength. Each block holds one binder with its values, some of them ahead of it.

Tests used:
[1] = molecular target: T1, SIN3A, endogenous (human (endogenous in MDA-MB-231, MCF10A and MCF10CAa.1)) (UniProt Q96ST3); assay: co-IP; SIN3A immunoprecipitated with a polyclonal SIN3A antibody from nuclear fractions (NE-PER kit) of MDA-MB-231 cells and derivatives; blot probed for BRMS1 (3a1.21)
T1 sequence: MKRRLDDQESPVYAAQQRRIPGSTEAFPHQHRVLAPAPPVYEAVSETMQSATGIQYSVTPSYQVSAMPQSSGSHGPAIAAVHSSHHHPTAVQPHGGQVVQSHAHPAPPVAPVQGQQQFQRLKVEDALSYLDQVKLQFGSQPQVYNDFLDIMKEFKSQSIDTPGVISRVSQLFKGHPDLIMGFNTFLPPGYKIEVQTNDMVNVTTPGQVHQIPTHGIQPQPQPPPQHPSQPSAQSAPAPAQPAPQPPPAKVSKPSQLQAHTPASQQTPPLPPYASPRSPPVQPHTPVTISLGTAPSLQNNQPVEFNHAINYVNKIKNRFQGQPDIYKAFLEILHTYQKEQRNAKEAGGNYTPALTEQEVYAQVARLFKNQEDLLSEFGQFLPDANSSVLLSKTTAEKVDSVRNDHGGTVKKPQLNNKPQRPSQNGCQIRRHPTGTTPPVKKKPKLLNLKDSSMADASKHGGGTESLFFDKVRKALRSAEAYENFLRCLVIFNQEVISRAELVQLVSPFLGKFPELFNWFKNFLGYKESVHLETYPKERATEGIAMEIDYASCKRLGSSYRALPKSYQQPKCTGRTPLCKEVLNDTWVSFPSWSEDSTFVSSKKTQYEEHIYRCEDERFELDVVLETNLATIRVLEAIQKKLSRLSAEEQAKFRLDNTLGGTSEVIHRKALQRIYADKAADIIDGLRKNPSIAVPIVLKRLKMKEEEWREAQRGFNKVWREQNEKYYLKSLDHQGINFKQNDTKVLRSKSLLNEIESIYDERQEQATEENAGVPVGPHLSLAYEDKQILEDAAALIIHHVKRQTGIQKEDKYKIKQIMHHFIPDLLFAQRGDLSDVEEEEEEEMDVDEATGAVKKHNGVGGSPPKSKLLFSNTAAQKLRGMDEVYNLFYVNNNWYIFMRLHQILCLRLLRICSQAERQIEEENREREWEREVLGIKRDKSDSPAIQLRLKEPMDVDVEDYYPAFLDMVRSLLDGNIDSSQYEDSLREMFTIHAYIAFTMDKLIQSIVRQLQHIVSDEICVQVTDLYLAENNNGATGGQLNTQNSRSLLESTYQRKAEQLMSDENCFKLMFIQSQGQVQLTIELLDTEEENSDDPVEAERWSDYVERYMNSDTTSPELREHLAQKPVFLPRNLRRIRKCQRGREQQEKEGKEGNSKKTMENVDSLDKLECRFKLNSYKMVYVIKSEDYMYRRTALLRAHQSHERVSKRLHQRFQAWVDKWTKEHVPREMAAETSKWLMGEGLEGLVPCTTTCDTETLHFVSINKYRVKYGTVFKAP

[2] = molecular target: T1, SIN3A, endogenous (human (endogenous in MDA-MB-231, MCF10A and MCF10CAa.1)); assay: co-IP; SIN3A immunoprecipitated with a polyclonal SIN3A antibody from cytoplasmic fractions (NE-PER kit) of MDA-MB-231 cells and derivatives; blot probed for BRMS1 (3a1.21)
[3] = molecular target: T1, SIN3A, endogenous (human (endogenous in MDA-MB-231, MCF10A and MCF10CAa.1)); assay: proximity ligation; Duolink PLA (Olink) on fixed, permeabilised MCF10A and MCF10CAa.1 cells; SIN3A and BRMS1 primary antibodies 1:100, anti-mouse minus and anti-rabbit plus probes

- binding [1]: binds
- binding [2]: binds
B1: Breast cancer metastasis suppressor 1 (BRMS1), wild type, constitutively expressed in MDA-MB-231 (protein, UniProt Q9HCU9 1-246)
chain: MPVQPPSKDTEEMEAEGDSAAEMNGEEEESEEERSGSQTESEEESSEMDDEDYERRRSECVSEMLDLEKQFSELKEKLFRERLSQLRLRLEEVGAERAPEYTEPLGGLQRSLKIRIQVAGIYKGFCLDVIRNKYECELQGAKQHLESEKLLLYDTLQGELQERIQRLEEDRQSLDLSSEWWDDKLHARGSSRSWDSLPPSKRKKAPLVSGPYIVYMLQEIDILEDWTAIKKARAAVSPQKRKSDGP

- binding [1]: binds
- binding [3]: binds
B2: BRMS1, endogenous (protein, UniProt Q9HCU9 1-246)
chain: B1 chain
